Experimental data taken from ChEMBL document CHEMBL3797054, “Discovery of a series of 8-(2,3-dihydro-1,4-benzoxazin-4-ylmethyl)-2-morpholino-4-oxo-chromene-6-carboxamides as PI3Kβ/δ inhibitors for the treatment of PTEN-deficient tumours” (Bioorg Med Chem Lett, 2016).

Assay: physchem
Settings: buffer, pH 7.4

C[C@@H]1CN(c2cc(=O)c3cc(C(=O)N4CCOCC4)cc(CN4CCOc5c(F)cc(F)cc54)c3o2)CCO1
logD: 2.1

C[C@@H]1CN(c2cc(=O)c3cc(C(=O)N4CCOCC4)cc(CN4CCOc5c(F)cccc54)c3o2)CCO1
logD: 1.8
